# Results as given in PubChem BioAssay AID662 (National Center for Advancing Translational Sciences (NCATS), 2007).
# Some of the results follow. These are further read-outs of the screen, such as a control signal, another cell line or another target. No call is given for them. The list favours compounds with an active or inconclusive main result. Words in brackets tell the shape of the fitted curve; partial curves, single points and poor fits give uncertain potencies.
# Experiment: Cell signaling CRE-BLA (Fsk stim)
# Settings: CHO CRE-bla reporter (cAMP response element driving beta-lactamase), forskolin EC10, beta-lactamase ratio; measured here: 460 nm blue channel
# Procedure, shortened: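 AC50 values, positive or negative, reflect shifts in EC10 NKH 477-induced CRE-bla reporter activity in CHO cells. Incubation lasted 3 h at 37 °C before CCF4 substrate (2 h, room temperature) and ratiometric 460/530 nm reading.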
row,SMILES,AC50
1,CCOC(=O)C1CCN(C(=O)c2oc3ccc(S(=O)(=O)N4CC(C)CC(C)C4)cc3c2C)CC1 (centres undefined),"12.6 µM [falling, single point]"
2,O=C(C1CCC1)N1CCc2cc(S(=O)(=O)NCc3ccco3)ccc21,"12.6 µM [rising, single point]"
3,CC1(Cc2ccc3c(c2)OCO3)NC(=O)NC1=O (centres undefined),"12.6 µM [falling, single point]"
4,COc1ccccc1OCCn1cc(C(=O)c2ccco2)c2ccccc21,"25.1 µM [falling, single point]"
5,COc1ccc(NC2=C(C(C)=O)C(c3ccc4c(c3)OCO4)C(C(C)=O)C(C)(O)C2)cc1 (centres undefined),"31.6 µM [falling, single point]"
6,COc1ccc(CCNC(=O)C2CCN(Cc3nc(-c4cccc(Cl)c4)oc3C)CC2)cc1OC,"0.398 µM [falling, full curve, poor fit]"
7,FC(F)(F)c1ccccc1-c1cncnc1NCCN1CCOCC1,"0.794 µM [rising, full curve, poor fit]"
8,Cc1cccc(-n2ncc3c(NCc4ccccn4)ncnc32)c1,"12.6 µM [rising, single point]"
9,COc1ccc2c(c1)OCC1=C2CCC2(C)C(=O)CC=C12 (centres undefined),"10 µM [falling, partial curve]"
10,N#Cc1nc(-c2ccccc2)oc1N1CCCCC1,"7.94 µM [rising, partial curve]"
11,COCCn1c(=O)c(-c2ccc(OC)cc2)nc2cnc(N3CCNCC3)nc21,"5.01 µM [rising, partial curve]"
12,CCN1CC2=C(OC(N)=C(C#N)C2c2cccs2)/C(=C/c2cccs2)C1 (centres undefined),"10 µM [falling, partial curve]"
13,COc1ccc(S(=O)(=O)NCc2ccc(C(=O)N3CCN(c4ccccn4)CC3)cc2)cc1,"0.00316 µM [falling, full curve, poor fit]"
14,COc1cc(NC2=CC(=O)CC(C)(C)C2)cc(OC)c1,"0.398 µM [falling, full curve]"
15,CCNc1ncc2nc(-c3ccc(OC)cc3)c(=O)n(Cc3cccs3)c2n1,"0.794 µM [rising, partial curve]"
16,C#CCNc1nc(CC)nc2c1nnn2Cc1ccccc1F,"7.94 µM [rising, partial curve]"
17,CCOc1cc2[nH]c(=O)n(Cc3cccc(OC)c3)c(=O)c2cc1OCC,"2 µM [rising, partial curve]"
18,COCCNc1ncnc2ccc(-c3ccc(C(=O)N(C)C)cc3)cc12,"7.94 µM [rising, partial curve]"
19,Cc1ccc2[nH]c(=O)c(-c3nc4c(C)cccn4c3NCc3ccco3)cc2c1,"5.01 µM [falling, single point]"
20,Cc1ccc(NC(=O)/C(CN(C)C)=N\O)cc1,"12.6 µM [falling, single point]"
21,O=C(c1cccc(F)c1)N1CCC2(CCCN(c3ccccc3)C2)CC1,"25.1 µM [rising, single point]"
22,CCCCc1c(C)nn(-c2nnc3c4ccccc4n(CC)c3n2)c1C,"1.26 µM [rising, full curve]"
23,c1ccc(-c2csc(Nc3nc(N4CCOCC4)nc(N4CCOCC4)n3)n2)cc1,"1.26 µM [rising, full curve]"

row,SMILES,AC50
1,Cc1ccc2nc(NC(=O)CCNS(=O)(=O)c3ccc(Br)s3)sc2c1,"0.794 µM [falling, partial curve]"
2,Cn1c(-c2ccc(F)cc2)cnc1SCC(=O)Nc1ccccc1N1CCOCC1,"20 µM [rising, single point]"
3,c1ccc2sc(SN3CCOCC3)nc2c1,"0.316 µM [falling, full curve, poor fit]"
4,COC(=O)c1ccc(C2C3=C(Nc4nnnn42)c2ccccc2OC3)cc1 (centres undefined),"10 µM [rising, partial curve]"
5,COC(=O)CSc1nnc(-c2cccs2)n1-c1ccc(Cl)cc1,"12.6 µM [falling, partial curve]"
6,CCC(C)NC(=O)c1c(N)n(/N=C/c2ccccn2)c2nc3ccccc3nc12 (centres undefined),"5.01 µM [rising, partial curve]"
7,O=C(Cn1nnc(-c2ccccc2)n1)OCc1ccccc1,"3.98 µM [falling, single point]"
8,COc1ccccc1-c1nc(NCc2cccnc2)c2ccccc2n1,"6.31 µM [rising, partial curve]"
9,COC(=O)c1c(-c2ccc(F)cc2)csc1NC(=O)c1ccco1,"0.794 µM [rising, full curve]"
10,COc1cccc(-c2ccc3ncnc(NCc4ccccc4OC)c3c2)c1,"3.98 µM [rising, partial curve, poor fit]"
11,Cc1ccc(S(=O)(=O)N[C@@H](Cc2ccccc2)C(=O)CCl)cc1,"10 µM [falling, full curve]"
12,COc1ccc(CNC(=O)Nc2cccc(C)c2)cc1,"0.501 µM [falling, full curve, poor fit]"
13,CCCn1c(N2CCC(Cc3ccccc3)CC2)nc2c1c(=O)[nH]c(=O)n2C,"25.1 µM [falling, single point]"
14,CCC/C=C(\CCC)C(NS(=O)(=O)c1ccc(Cl)cc1)c1ccccc1 (centres undefined),"3.16 µM [rising, single point]"
15,CCNc1ncc2ncc(=O)n(Cc3cccs3)c2n1,"12.6 µM [falling, single point]"
16,Cc1ccccc1-n1nc2c(c1NC(=O)c1cc3ccccc3oc1=O)CS(=O)(=O)C2,"1.26 µM [rising, full curve]"
17,N#Cc1c(C(F)(F)F)cc(-c2ccccc2)nc1SCc1nc(N)nc(N2CCOCC2)n1,"2.51 µM [rising, full curve]"
18,Cc1ccc(C(=O)Oc2ccc3c(c2)ncn3C)cc1,"0.01 µM [falling, full curve, poor fit]"
19,CCc1nc(SCc2ccc(C(=O)OC)o2)c2c(=O)n(C)c(=O)n(C)c2n1,"2 µM [rising, full curve]"
20,Cc1ccc(C)c(N2CCN(C(=O)COc3cc(=O)n(C)c4ccccc34)CC2)c1,"5.01 µM [rising, single point]"
21,CNc1nnc(CSc2nc(C)cc(C)n2)s1,"0.631 µM [rising, full curve, poor fit]"
22,O=c1cc(CO)occ1O,"31.6 µM [falling, single point]"
23,CCc1cc2c(CN3CCN(CC)CC3)cc(=O)oc2cc1O,"10 µM [rising, partial curve]"

# A second format for some results above.
row	SMILES	AC50
22	CCCCc1c(C)nn(-c2nnc3c4ccccc4n(CC)c3n2)c1C	1.26 µM [rising, full curve]
23	c1ccc(-c2csc(Nc3nc(N4CCOCC4)nc(N4CCOCC4)n3)n2)cc1	1.26 µM [rising, full curve]
1	Cc1ccc2nc(NC(=O)CCNS(=O)(=O)c3ccc(Br)s3)sc2c1	0.794 µM [falling, partial curve]
2	Cn1c(-c2ccc(F)cc2)cnc1SCC(=O)Nc1ccccc1N1CCOCC1	20 µM [rising, single point]

# Carrying on:

row,SMILES,AC50
1,CC(C)n1c(SCC(=O)N2c3ccccc3Sc3ccccc32)nc2c1c(=O)n(C)c(=O)n2C,"1.26 µM [rising, partial curve]"
2,CC[N+](CC)(CC)C/C(N)=N/O,"5.01 µM [falling, full curve, poor fit]"
3,COc1ccccc1N=c1scc(-c2ccc3c(c2)NC(=O)CO3)n1CC1CCCO1 (centres undefined),"3.98 µM [falling, partial curve]"
4,COCCN1C(=O)c2oc3cc(C)c(C)cc3c(=O)c2C1c1cccc(O)c1 (centres undefined),"25.1 µM [rising, single point]"
5,NC1CCN(c2cccc(Cl)n2)CC1,"0.0316 µM [falling, full curve, poor fit]"
6,CCN(CC)c1cc2nonc2c2nonc12,"0.0158 µM [falling, full curve]"
7,CCOC(=O)N1CCN(C(=O)Cn2cc3c(n2)CCCC3)CC1,"0.126 µM [falling, full curve, poor fit]"
8,Cc1ccc(-n2c(SCC(=O)Nc3nccs3)nc3c(c2=O)SCC3)cc1,"20 µM [rising, single point]"
9,Cn1c(=O)n(C)c2cc(NC(=O)C(F)(F)F)ccc21,"10 µM [rising, single point]"
10,Cc1ccc(-c2nnn(CCC(=O)N3CCCCC3C)n2)cc1 (centres undefined),"0.0794 µM [falling, single point]"
11,O=C(NC1=NCCS1)c1ccncc1,"0.158 µM [falling, single point]"
12,Cc1cccn2c(=O)c3cc(C(=O)NC4CCCC4)c(=N)n(C4CCCC4)c3nc12,"5.01 µM [rising, partial curve]"
13,CCc1nc(SCC(=O)Nc2ccc3c(c2)OCCO3)c2oc3ccccc3c2n1,"0.316 µM [rising, full curve]"
14,O=c1[nH]c(=S)[nH]c2c1CN(CCCN1CCOCC1)CN2,"3.98 µM [rising, single point]"
15,O=C(CCC(=O)c1cccs1)OCc1nnc(-c2ccccc2)o1,"3.98 µM [falling, single point]"
16,CCOC(=O)C(C(=O)OCC)c1cc(Br)c2noc3c2c1C(=O)c1ccccc1-3,"10 µM [falling, partial curve]"
17,CC1CCOC2(O1)C(=O)N(CN1CCN(c3ccccc3F)CC1)c1ccccc12 (centres undefined),"1.26 µM [falling, full curve]"
18,O=C(CSc1cccc(C(F)(F)F)c1)N1CCN(S(=O)(=O)c2ccccc2)CC1,"0.01 µM [falling, full curve]"
19,CC(C)C[C@H](N)c1nnc(S(=O)(=O)Cc2cccc(F)c2)o1,"6.31 µM [falling, partial curve]"
20,CCOC(=O)c1ccccc1NC(=O)c1c(O)c2ccccc2n(CC)c1=O,"7.94 µM [rising, single point]"
21,C/C(=C\CNc1ncnc2nc[nH]c12)CO,"31.6 µM [falling, single point]"
22,N#CC(C(=O)OC1CCCCC1)c1nc2ccccc2nc1N1CCCCC1 (centres undefined),"10 µM [rising, partial curve]"
23,O=C(NCC1CCCO1)C1C2C=CC3(CN(Cc4cccs4)C(=O)C13)O2 (centres undefined),"10 µM [falling, partial curve]"
